Experimental data from patent US20230279108A1.
No constants are given. Whether binding was seen depends on the method and setting. Some entries that bind do so weakly or less than the wild type.

Sequences of proteins named here, by UniProt entry; tags and fusion partners are left off. A change or cut given only in a name is not applied to a line headed by its entry.
UniProt P78324: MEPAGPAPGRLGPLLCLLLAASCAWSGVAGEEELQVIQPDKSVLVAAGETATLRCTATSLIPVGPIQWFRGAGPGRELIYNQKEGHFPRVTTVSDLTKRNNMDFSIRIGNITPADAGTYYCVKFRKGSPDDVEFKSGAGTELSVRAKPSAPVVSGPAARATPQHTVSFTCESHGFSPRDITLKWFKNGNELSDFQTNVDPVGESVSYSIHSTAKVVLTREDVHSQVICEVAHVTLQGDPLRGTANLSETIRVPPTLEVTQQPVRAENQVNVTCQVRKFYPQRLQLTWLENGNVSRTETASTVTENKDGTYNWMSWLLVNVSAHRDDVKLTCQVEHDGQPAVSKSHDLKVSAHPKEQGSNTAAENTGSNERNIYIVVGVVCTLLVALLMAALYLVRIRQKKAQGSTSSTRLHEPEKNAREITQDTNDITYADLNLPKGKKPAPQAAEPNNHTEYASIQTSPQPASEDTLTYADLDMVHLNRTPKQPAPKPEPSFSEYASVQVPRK

What was measured:
[1] = biological target: human SIRPα expressed on cells (THP-1, macrophages, dendritic cells, ES-2) (human) (UniProt P78324); assay: flow cytometry on human macrophages and dendritic cells
[2] = biological target: human SIRPα expressed on cells (THP-1, macrophages, dendritic cells, ES-2) (human) (UniProt P78324); assay: flow cytometry on THP-1 cells
[3] = biological target: human SIRPα expressed on cells (THP-1, macrophages, dendritic cells, ES-2) (human) (UniProt P78324); assay: flow cytometry on ES-2 cells (SIRPα/β), 10 µg/ml

binding [1] | binding [2] | binding [3] | Binder
binds | binds |  | SIRP3 (antibody, mouse IgG1, kappa, V domains shown) VH: EVQLQQSGPEVVKPGASVKMSCKASGYTFTSYVMHWVKQKPGQGLEWIGYINPYNDGPKYNEKFKGKATLTSDKSSSTAYMELSSLTSEDSAVYFCARWDYFNSASGFAFWGQGTLVTVSA VL: EIVLTQSPTTMAASPGEKITIICSASSIIGSDFLHWYQQRPGFSPKFLIYRTSILASGVPTRFTGSGSGTSYSLTIGTMEAEDVATYYCQQGSGLPLTFGSGTKLEMKR
binds |  | binds | SIRP4 (antibody, V domains shown) VH: EVQLQQSGPDLVKPGASVKISCKASGYSFTDYFLNWVKQSHGKSLEWIGRINPYNGDSFINQNFRDKATLTVDKSSTTAHMDLLSLTSEDSAIYYCGRGGYDGYFIAYFDYWGQGSLVTVSA VL: DIKLTQSQSSMYSSLGQRVTITCKASQDINSHLSWFQEKPGKSPKTLIYRANRLADGVPSRFSGSGSGQDYFLTISSLEYEDVGIYYCLQYDEFPYTFGGGTKLEIK
binds |  |  | SIRP5 (antibody, V domains shown) VH: QVQLQQSAAELARPGASVKMSCKASGYTFTSYTMHWVKQRPGQGLEWIGYINPTIGYTEYNQKFKDKTTLTADKSSSTAYMQLSSLTSEDSAVYYCVRLVITSVLGRAMDYWGQGTSVTVSS VL: QIVLTQSPALMSASPGEKVTMTCSASSSVSYMYWFQQKPRSSPKPWIYLTSNLASGVPARFSGSGSGTSYSLTISSMEAEDAATYYCQQWSGNPFTFGSGTKLEIK
binds |  | binds | SIRP9 (antibody, V domains shown) VH: EVQLQESGAELVRPGASVKLSCKALGYTFTDYEIHWVKETPVYGLEWIGDIHPGSGGTANNQKFKGKATLTADKSSNTAYMELSSLTSEDSAVYYCTRAVSGYYAMDYWGQGTSVTVSS VL: DIQMTQSSSSFSGSLGDRLTINCKASEDIYDRVAWYQQKPGNAPRLLISGTASLETGVLSRFSGSGSGKDYTLSINGLQAEDVATYYCQQYWTTPWTFGGGTKLEIK
 | binds |  | SIRP2 (antibody, mouse IgG1, kappa, V domains shown) VH: EVKLVESGGGLVQPGGSLKLSCAASGFSFSGCTMSWIRQTPERRLEWVAYISNGGDITYYPDTVKGRFTISRDNAKNSLYLQMSSLKSEDTAMYYCARLDGYYYAMDFWGQGTSVTVSS VL: DILLTQSPAILSVSPGERVSFSCRASQSIGTSIHWYQQRTNGSPRLLIKYGSESISGIPSRFSGSGSGTDFTLSINSVESEDIADYYCQQSNTWPLTFGDGTKLELKR
